For 17 molecules, binding results are on record in paper PMC9277809.

In assay [1] the target is T1, Ski-interacting protein OsSKIPa (rice (Oryza sativa L.)) (UniProt Q6K8D9).
T1 sequence: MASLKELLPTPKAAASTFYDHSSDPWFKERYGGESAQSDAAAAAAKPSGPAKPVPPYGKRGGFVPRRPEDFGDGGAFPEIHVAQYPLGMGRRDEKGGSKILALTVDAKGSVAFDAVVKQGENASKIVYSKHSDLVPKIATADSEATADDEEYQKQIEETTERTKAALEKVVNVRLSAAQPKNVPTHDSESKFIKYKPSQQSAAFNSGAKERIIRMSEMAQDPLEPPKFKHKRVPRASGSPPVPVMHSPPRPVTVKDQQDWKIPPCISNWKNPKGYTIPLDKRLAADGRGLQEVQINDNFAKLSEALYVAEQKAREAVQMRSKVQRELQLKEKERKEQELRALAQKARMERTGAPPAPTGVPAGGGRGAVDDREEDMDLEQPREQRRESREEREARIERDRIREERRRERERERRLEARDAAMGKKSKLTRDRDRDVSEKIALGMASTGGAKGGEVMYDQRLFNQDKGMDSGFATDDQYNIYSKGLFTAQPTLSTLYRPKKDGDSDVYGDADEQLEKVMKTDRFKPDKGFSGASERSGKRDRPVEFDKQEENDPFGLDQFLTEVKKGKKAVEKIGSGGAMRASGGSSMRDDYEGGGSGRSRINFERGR
The assay is described as follows: two-hybrid; confirmation of single bait-E3 pairs in yeast; growth on DDO (SD-Leu-Trp) and QDO (SD-Leu-Trp-His-Ade); called yeast co-transformation assay for OsPAL1-OsFBK16.

Assay [2] concerns the target T1, Ski-interacting protein OsSKIPa (rice (Oryza sativa L.)). The assay is described as follows: two-hybrid; library screen: AH109 carrying the pGBKT7-bait mated with Y187 carrying the pGADT7-UbE3 library (1499 E3 ORFs) at 30 °C for 20-24 h; selection on SD-Leu-Trp-His-Ade; positive clones identified by PCR and sequencing.
Assay [3] has as its target T2, OsSKIPa-GFP (rice (Oryza sativa L.)) (UniProt Q6K8D9).
T2 sequence: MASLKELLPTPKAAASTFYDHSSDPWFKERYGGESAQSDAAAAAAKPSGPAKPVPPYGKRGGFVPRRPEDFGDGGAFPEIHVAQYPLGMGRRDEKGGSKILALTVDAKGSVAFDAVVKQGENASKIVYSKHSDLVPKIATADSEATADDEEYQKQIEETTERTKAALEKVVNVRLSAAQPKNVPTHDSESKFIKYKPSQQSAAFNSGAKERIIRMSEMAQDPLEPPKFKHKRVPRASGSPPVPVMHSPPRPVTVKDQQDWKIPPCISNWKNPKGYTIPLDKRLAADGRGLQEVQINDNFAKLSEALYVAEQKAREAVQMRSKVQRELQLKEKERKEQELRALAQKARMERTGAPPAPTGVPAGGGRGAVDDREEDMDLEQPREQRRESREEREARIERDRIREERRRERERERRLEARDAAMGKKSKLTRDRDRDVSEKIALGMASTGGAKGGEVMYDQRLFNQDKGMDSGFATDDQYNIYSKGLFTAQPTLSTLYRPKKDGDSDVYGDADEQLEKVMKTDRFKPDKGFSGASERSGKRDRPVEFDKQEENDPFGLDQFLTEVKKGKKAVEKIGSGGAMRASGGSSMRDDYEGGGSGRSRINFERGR
The assay is described as follows: co-IP; GFP-tagged substrate and HA-tagged E3 co-expressed in N. benthamiana leaves by agro-infiltration, 72 h; immunoprecipitated with anti-GFP/agarose beads; blot with anti-GFP or anti-HA.

Assay [4] concerns the target T3, OsNPR3-HA (rice (Oryza sativa L.)) (UniProt Q75HA6).
T3 sequence: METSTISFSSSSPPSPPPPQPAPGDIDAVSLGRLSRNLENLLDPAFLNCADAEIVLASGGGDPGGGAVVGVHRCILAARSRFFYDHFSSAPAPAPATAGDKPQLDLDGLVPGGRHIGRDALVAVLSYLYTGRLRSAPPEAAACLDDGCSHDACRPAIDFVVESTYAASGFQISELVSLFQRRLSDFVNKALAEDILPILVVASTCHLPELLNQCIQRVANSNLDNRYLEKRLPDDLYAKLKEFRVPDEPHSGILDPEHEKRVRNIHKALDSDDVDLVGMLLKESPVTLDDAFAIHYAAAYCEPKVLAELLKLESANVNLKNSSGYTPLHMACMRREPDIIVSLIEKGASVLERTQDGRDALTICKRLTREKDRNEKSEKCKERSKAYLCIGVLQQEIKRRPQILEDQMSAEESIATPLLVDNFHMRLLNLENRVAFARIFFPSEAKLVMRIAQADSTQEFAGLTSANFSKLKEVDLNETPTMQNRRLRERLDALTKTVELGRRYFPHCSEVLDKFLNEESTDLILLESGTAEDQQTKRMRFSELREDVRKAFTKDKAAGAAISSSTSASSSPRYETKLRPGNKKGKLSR
The assay is described as follows: co-IP; GFP-tagged substrate and HA-tagged E3 co-expressed in N. benthamiana leaves by agro-infiltration, 72 h; immunoprecipitated with anti-HA/agarose beads; blot with anti-GFP or anti-HA.

Assay [5] addresses T4, OsNPR2-HA (rice (Oryza sativa L.)) (UniProt Q0JJ01).
T4 sequence: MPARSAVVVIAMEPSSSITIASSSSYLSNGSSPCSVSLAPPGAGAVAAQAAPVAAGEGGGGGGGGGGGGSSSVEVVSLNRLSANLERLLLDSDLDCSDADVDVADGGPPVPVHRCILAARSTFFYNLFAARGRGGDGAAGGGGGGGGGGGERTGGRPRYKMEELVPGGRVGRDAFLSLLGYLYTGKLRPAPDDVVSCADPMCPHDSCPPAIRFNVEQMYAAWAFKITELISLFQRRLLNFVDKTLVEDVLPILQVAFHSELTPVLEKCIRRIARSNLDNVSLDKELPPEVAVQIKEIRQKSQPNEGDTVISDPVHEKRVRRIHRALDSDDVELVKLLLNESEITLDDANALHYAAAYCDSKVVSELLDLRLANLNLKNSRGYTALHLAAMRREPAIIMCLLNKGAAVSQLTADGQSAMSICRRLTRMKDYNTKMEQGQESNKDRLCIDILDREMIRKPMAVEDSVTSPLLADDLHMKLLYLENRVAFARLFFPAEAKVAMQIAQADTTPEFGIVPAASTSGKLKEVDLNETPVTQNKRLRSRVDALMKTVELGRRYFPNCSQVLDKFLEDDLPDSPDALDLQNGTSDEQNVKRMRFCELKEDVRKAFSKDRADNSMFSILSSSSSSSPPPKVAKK
The description is as above.

For assay [6], the target named is rTGA2.1 (rice (Oryza sativa L.)). The assay is described as follows: two-hybrid; library screen: AH109 carrying the pGBKT7-bait mated with Y187 carrying the pGADT7-UbE3 library (1499 E3 ORFs) at 30 °C for 20-24 h; selection on SD-Leu-Trp-His-Ade; positive clones identified by PCR and sequencing.
The target is the same in assay [7]. The assay is described as follows: two-hybrid; confirmation of single bait-E3 pairs in yeast; growth on DDO (SD-Leu-Trp) and QDO (SD-Leu-Trp-His-Ade); called yeast co-transformation assay for OsPAL1-OsFBK16.
Assay [8] concerns the target OsPUB69-HA (rice (Oryza sativa L.)). The assay is described as follows: co-IP; GFP-tagged substrate and HA-tagged E3 co-expressed in N. benthamiana leaves by agro-infiltration, 72 h; immunoprecipitated with anti-HA/agarose beads; blot with anti-GFP or anti-HA.

No constants are given. Whether binding was seen depends on the method and setting. Binding calls can cover weak binding; strength is not graded here. For some of these results: In cells and extracts the contact can be indirect. For some of these results: Sequences can lack the tags named with a protein.

As to OsFBX503, the binding entry in assay [1] and in assay [2] was “binds” throughout.

As for OsPUB28 (enzyme), the binding result in assay [1] and in assay [2] was “binds” each time.

As to OsPUB46 (enzyme), the binding result in assay [1] and in assay [2] was “binds” in each case.

For the molecule “OsPUB46-HA (rice (Oryza sativa L.)) (enzyme)”, the binding entry in assay [3] was “binds”.

As to OsPUB49 (enzyme), the binding entry in assay [1] and in assay [2] was “binds” each time.

Turning to OsPUB58 (enzyme), the binding entry in assay [1] and in assay [2] was “binds” in each case.

For the molecule OsPUB69 (enzyme), the binding entry in assay [1] and in assay [2] was “binds” throughout.

Consider OsRING77 (enzyme), for which the binding entry in assay [1] and in assay [2] was “binds” each time.

For OsRING113 (enzyme), the binding entry in assay [1] and in assay [2] was “binds” in each case.

Turning to OsRING171 (enzyme), the binding entry in assay [1] and in assay [2] was “binds” each time.

Turning to OsRING199 (enzyme), the binding entry in assay [1] and in assay [2] was “binds” in each case.

Turning to “OsRING199-HA (rice (Oryza sativa L.)) (enzyme)”, the binding entry in assay [3] was “no binding”.

On to OsRING394 (enzyme), for which the binding result in assay [1] and in assay [2] was “binds” throughout.

As for rTGA2.1-GFP (rice (Oryza sativa L.)), the binding entry in assay [4] and in assay [5] was “binds” each time.

B1: OsNPR2 (protein, UniProt Q0JJ01 1-635)
chain: MPARSAVVVIAMEPSSSITIASSSSYLSNGSSPCSVSLAPPGAGAVAAQAAPVAAGEGGGGGGGGGGGGSSSVEVVSLNRLSANLERLLLDSDLDCSDADVDVADGGPPVPVHRCILAARSTFFYNLFAARGRGGDGAAGGGGGGGGGGGERTGGRPRYKMEELVPGGRVGRDAFLSLLGYLYTGKLRPAPDDVVSCADPMCPHDSCPPAIRFNVEQMYAAWAFKITELISLFQRRLLNFVDKTLVEDVLPILQVAFHSELTPVLEKCIRRIARSNLDNVSLDKELPPEVAVQIKEIRQKSQPNEGDTVISDPVHEKRVRRIHRALDSDDVELVKLLLNESEITLDDANALHYAAAYCDSKVVSELLDLRLANLNLKNSRGYTALHLAAMRREPAIIMCLLNKGAAVSQLTADGQSAMSICRRLTRMKDYNTKMEQGQESNKDRLCIDILDREMIRKPMAVEDSVTSPLLADDLHMKLLYLENRVAFARLFFPAEAKVAMQIAQADTTPEFGIVPAASTSGKLKEVDLNETPVTQNKRLRSRVDALMKTVELGRRYFPNCSQVLDKFLEDDLPDSPDALDLQNGTSDEQNVKRMRFCELKEDVRKAFSKDRADNSMFSILSSSSSSSPPPKVAKK
B1: the binding result in assay [6] and in assay [7] was “binds” in each case.

B2: NRR-GFP (protein, UniProt Q5ZEF1 1-127)
chain: MDATTTAKRKRPAASDIADDAPTTVDEVSDAEVEEFYAILRRMRDATRRLGARPPPPRAPAWRPSFSWEDFADAPPKQAPPPPQQPADHERVAENATPPRRPAPGLDLNVEPPSDAPATPRSARAPA
For B2, the binding result in assay [8] was “binds”.

B3: OsNPR3 (protein, UniProt Q75HA6 1-589)
chain: METSTISFSSSSPPSPPPPQPAPGDIDAVSLGRLSRNLENLLDPAFLNCADAEIVLASGGGDPGGGAVVGVHRCILAARSRFFYDHFSSAPAPAPATAGDKPQLDLDGLVPGGRHIGRDALVAVLSYLYTGRLRSAPPEAAACLDDGCSHDACRPAIDFVVESTYAASGFQISELVSLFQRRLSDFVNKALAEDILPILVVASTCHLPELLNQCIQRVANSNLDNRYLEKRLPDDLYAKLKEFRVPDEPHSGILDPEHEKRVRNIHKALDSDDVDLVGMLLKESPVTLDDAFAIHYAAAYCEPKVLAELLKLESANVNLKNSSGYTPLHMACMRREPDIIVSLIEKGASVLERTQDGRDALTICKRLTREKDRNEKSEKCKERSKAYLCIGVLQQEIKRRPQILEDQMSAEESIATPLLVDNFHMRLLNLENRVAFARIFFPSEAKLVMRIAQADSTQEFAGLTSANFSKLKEVDLNETPTMQNRRLRERLDALTKTVELGRRYFPHCSEVLDKFLNEESTDLILLESGTAEDQQTKRMRFSELREDVRKAFTKDKAAGAAISSSTSASSSPRYETKLRPGNKKGKLSR
With B3, the binding result in assay [6] and in assay [7] was “binds” throughout.
